From paper PMC3492265
Results are given in words; binding and its absence hold for the method and conditions named. Binding seen in cells or lysates may run through a third protein. Some results given as binding are weak or reduced against the parent protein; the word gives no strength.

Amino acid sequences for entries named in this document (tags omitted).
UniProt P11103: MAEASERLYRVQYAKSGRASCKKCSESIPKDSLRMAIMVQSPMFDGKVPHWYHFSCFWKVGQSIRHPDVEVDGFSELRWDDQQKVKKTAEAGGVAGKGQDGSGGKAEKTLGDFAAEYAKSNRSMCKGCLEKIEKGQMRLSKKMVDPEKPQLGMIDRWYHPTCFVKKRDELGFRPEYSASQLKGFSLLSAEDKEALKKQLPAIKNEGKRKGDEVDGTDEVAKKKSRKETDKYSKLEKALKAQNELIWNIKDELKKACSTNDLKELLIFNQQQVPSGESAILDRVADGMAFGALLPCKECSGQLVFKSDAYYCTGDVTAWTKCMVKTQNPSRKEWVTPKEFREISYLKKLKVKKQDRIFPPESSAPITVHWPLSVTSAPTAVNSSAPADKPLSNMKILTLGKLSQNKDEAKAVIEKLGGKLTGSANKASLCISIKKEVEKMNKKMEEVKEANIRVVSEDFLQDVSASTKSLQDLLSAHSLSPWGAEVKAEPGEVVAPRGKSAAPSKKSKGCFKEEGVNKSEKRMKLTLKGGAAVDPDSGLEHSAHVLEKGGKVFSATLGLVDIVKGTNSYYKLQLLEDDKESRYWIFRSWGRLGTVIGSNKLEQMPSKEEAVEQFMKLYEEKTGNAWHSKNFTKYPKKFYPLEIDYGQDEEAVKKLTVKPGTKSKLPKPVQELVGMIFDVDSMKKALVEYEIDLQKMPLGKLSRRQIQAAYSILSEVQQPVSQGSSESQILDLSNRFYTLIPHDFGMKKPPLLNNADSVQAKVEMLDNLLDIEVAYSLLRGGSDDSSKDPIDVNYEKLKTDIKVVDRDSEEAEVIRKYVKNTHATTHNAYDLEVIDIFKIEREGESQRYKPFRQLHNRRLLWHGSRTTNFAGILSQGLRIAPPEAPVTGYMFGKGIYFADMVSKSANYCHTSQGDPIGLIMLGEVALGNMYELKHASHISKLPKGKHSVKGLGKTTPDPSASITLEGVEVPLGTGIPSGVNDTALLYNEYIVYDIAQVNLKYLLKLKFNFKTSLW
UniProt P23475: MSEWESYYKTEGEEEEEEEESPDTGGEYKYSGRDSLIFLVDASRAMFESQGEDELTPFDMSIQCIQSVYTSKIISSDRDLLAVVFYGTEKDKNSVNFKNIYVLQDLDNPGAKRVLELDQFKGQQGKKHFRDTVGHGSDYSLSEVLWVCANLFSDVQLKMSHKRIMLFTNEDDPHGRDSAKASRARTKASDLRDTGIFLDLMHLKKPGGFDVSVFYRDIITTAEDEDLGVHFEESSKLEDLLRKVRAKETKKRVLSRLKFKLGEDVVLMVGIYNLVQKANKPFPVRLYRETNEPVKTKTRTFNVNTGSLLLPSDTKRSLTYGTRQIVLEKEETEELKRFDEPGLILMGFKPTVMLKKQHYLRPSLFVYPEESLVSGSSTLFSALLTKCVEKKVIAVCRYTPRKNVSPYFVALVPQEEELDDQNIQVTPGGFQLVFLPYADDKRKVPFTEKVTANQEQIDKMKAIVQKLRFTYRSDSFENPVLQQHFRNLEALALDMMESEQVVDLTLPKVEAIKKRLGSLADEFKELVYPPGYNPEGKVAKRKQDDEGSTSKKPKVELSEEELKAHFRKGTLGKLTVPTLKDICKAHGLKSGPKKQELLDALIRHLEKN

What was measured:
[1] = molecular target: Poly(ADP-ribose) polymerase-1 (mouse (endogenous in mouse embryonic fibroblasts)) (UniProt P11103); experiment: co-IP; anti-PARP-1 rabbit polyclonal antibody with 1 mg cell extract, protein A-sepharose/protein G-agarose beads, 4°C, lysis buffer 50 mM Tris-HCl pH 7.5, 150 mM NaCl, 0.2% Triton X-100, 0.3% NP-40; blot for Ku70; wild-type and pol β null cells, untreated or treated with 10 mM MMS and left to repair
[2] = molecular target: Ku70 (mouse (endogenous in mouse embryonic fibroblasts)) (UniProt P23475); experiment: co-IP; anti-Ku70 antibody with cell extracts; blot for PARP-1; wild-type and pol β null cells, untreated or treated with 10 mM MMS and left to repair

Row | Substance | binding [1] | binding [2]
1 | Ku70 (from UniProt P23475 1-608) | binds | 
2 | Poly(ADP-ribose) polymerase-1 (from UniProt P11103 1-1013) |  | binds
